Primary screen of a compound library

Measurements from “University of Dundee, Small-Polar-MMV Screening Library” (2021), ChEMBL document CHEMBL3988442.

Mtb glucose medium: 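Whole-cell growth test on Mycobacterium tuberculosis, read after 3 days in glucose-containing 7H9 medium; the read-out is not stated. Compounds at 50 µM. The record gives no direction; compounds that gave an IC50 in retests scored well above the rest, so higher reads as more growth inhibition. Size under these conditions: about 69,000 compounds, about 760 of them at 50% or above in at least one test.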
Mtb cholesterol medium: 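Whole-cell growth test on Mycobacterium tuberculosis, read after 4 days in a medium based on cholesterol and the lipid DPPC; the read-out is not stated. Tested at 50 µM. The record gives no direction; compounds that gave an IC50 in retests scored well above the rest, so higher reads as more growth inhibition. Size under these conditions: about 69,000 compounds, about 370 of them at 50% or above in at least one test.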

Each number is a percent effect as filed. The controls that fix the scale are not given in the record; negative values are as filed. This is an unselected part of the compounds tested. Two or more numbers in one place are separate tests of the same structure; such repeats can differ widely.

compound,Mtb glucose medium,Mtb cholesterol medium
CN(C)C(=O)CN1CCC2(COCc3cnc(-c4ccccc4)nc32)C1 (stereo not drawn),-4.138%,-15.27%
Cc1cc(S(=O)(=O)NCC2CNCCOC2)c(C)cc1Cl (stereo not drawn),16.32%,2.435%
COC(=O)c1sc2nc3c(c(C(F)(F)F)c2c1N)CN(C(C)=O)CC3,20.37%,11.09%
O=C(NC[C@H]1CCCC[C@H]1O)c1cccc2[nH]c(-c3cccs3)nc12,-20.09%,-17.9%
Cc1occc1C(=O)N1CCc2c(CNc3ncccn3)cncc2C1.Cl,-4.099%,-28.06%
Cc1[nH]ccc1C(=O)Nc1cccc(CN2CCC(O)CC2)c1,-17.11% and -2.511%,-28.13%
c1cnn(C2CN(CCCOc3ccc4c(c3)OCO4)C2)c1,25.07%,23.99%
Cc1noc(CN(Cc2ccc3c(c2)OCCO3)Cc2ccco2)n1,31.25%,34.37%
CCNC(=O)C1(Cc2cc(-c3ccccc3)no2)CCCN(C)C1 (stereo not drawn),12.23%,4.073%
[H][C@]12CO[C@H](CNS(C)(=O)=O)[C@@]1([H])CCN(C(=O)c1cnoc1C)C2,-16.99% and -4.298%,-12.5%
CCn1ncc(-c2cc(C(F)F)nc3sc(C(N)=O)c(N)c23)c1C,25.76%,-7.002%
COc1c(C2CCCN2C(=O)c2ccc(N(C)C)nn2)c(C)nn1C (stereo not drawn),3.949%,2.905%
Cc1cc(NS(=O)(=O)c2ccc(C(=O)O)cc2F)ccc1F,27.39%,7.775%
COc1ccc(C(=O)N2CCCC2c2cnn(C)c2)cn1 (stereo not drawn),26.37%,-15.99%
CN(C)c1cc(N2CCN(c3ccccn3)CC2)ncn1,-23.19%,-27.18%
CCC(CC)c1cc(C(=O)N2CCN(C(C#N)C(C)C)CC2)on1 (stereo not drawn),3.278% and 29.6%,15.23%
CC(=O)N1CCc2ccc(S(=O)(=O)N3CCCCC3C)cc21 (stereo not drawn),4.29%,3.875%
CC(C)CN1CCC(C(=O)NCCNC(=O)c2ccoc2)CC1,-1.893% and 3.652%,-4.828%
Nc1ccncc1-n1cc(CCO)cn1,11.35%,-2.699%
CC(C)CCNC(=O)C(c1cccc(F)c1)N(C)C (stereo not drawn),-0.2262%,5.756% and 8.172%
O=C(O)C(F)(F)F.O=S(=O)(C1CC1)N1CCC2(CCCN(c3ncccn3)C2)C1 (stereo not drawn),-65.74%,-18.11%
CSCCN(C)C(=O)C1(c2ccc(F)cc2F)CCOCC1,5.458%,2.057%
COc1ccnc(N2CCN(C(=O)Cc3ccn(C(C)C)n3)CC2)n1,11.43%,22.98%
Cc1cc(C)c2c(c1)C(CC(=O)O)C(=O)N2 (stereo not drawn),29.32%,-17.04%
C1CCc2nnc(CNc3nc(C4CC4)nc4c3CCNCC4)n2CC1,-20.9% and -0.8047%,4.451%
Cc1ccccc1CSc1nc(N)cc(N2CC[C@@H](O)C2)n1,7.907%,-8.996%
O=C(CCc1ccsc1)Nc1ccnn1C1CCS(=O)(=O)C1 (stereo not drawn),-4.47%,-13.15%
O=C(O)C(F)(F)F.[H][C@]12CCC[C@@]1(COc1ccccn1)CN(C(=O)CS(C)(=O)=O)C2,-18.23%,-10.96%
Cc1ccccc1C1CCN(C(=O)CCNS(C)(=O)=O)C1 (stereo not drawn),-34.48%,-41.24%
CN(Cc1cc(Br)cs1)Cc1nnsc1Cl,29.56%,27.57%
CC(Cc1ccc(C(F)(F)F)cc1)C(=O)N1CCCS1(=O)=O (stereo not drawn),-19.29% and 7.795%,-8.207%
Cc1c(Br)c(C(F)F)nn1C(C)C(=O)O (stereo not drawn),-6.649%,5.548%
CCN1CCCC(C)(C(=O)NCCc2nnc(C)[nH]2)C1 (stereo not drawn),-11.51%,2.828% and -0.1351%
O=C(O)C(F)(F)F.[H][C@@]12C[C@H](C(=O)NC)[C@@]([H])(CN(Cc3cccc(C)c3)C1)O2,2.952%,-7.818%
FC(F)(F)Cn1ccnc1CNCC1CCCN1c1cccnn1 (stereo not drawn),8.705%,-6.133%
Cc1cncc(C(=O)N(c2ccc(F)cn2)C2CCOCC2)c1,7.323%,31.19%
OC(CN1CCCCc2ccccc21)Cn1cccn1 (stereo not drawn),13.28%,3.233%
COc1cc(C2SCC(=O)Nc3ccsc32)cc(OC)c1OC (stereo not drawn),0.02068%,15.04% and -9.594%
[H][C@]12CN(c3cc(C#N)ccn3)CC[C@@]1(O)CCN(S(C)(=O)=O)C2,-6.494% and -3.394%,13.13%
Cc1nc2c(c(=O)n1C)CN(C(=O)C1CCCN(CC(N)=O)C1)C2 (stereo not drawn),-34.33%,-15.19% and -23.23%
CC1(C)CN=C(N2CCN(CC3CCCO3)CC2)S1 (stereo not drawn),11.07%,-14.75%
Cn1cnnc1C1CCCN(Cc2nc(Cc3ccccc3)no2)C1 (stereo not drawn),3.829%,-9.391%
CC(=O)NCc1noc2c1CN(CCN1CCCC1)CC2.O=C(O)C(F)(F)F.O=C(O)C(F)(F)F,0.8826% and -20.6%,2.465%
Cc1ccc(C(=O)N2CCCCC2c2[nH]ncc2S(C)(=O)=O)s1 (stereo not drawn),8.032%,-20.24%
Cc1cnn(C2CN(CC(=O)NCCc3ccsc3)C2)c1,21.72%,0.6506%
COCc1ccccc1CNC(=O)CN1CCC2(CCOC2)C1 (stereo not drawn),32.85%,16.58%
CCNC(=O)[C@@H]1CCCN1[C@@H](C(=O)NC)C1CC1.Cl,-6.689% and -54.4%,-16.32%
[H][C@@]12CN(C(=O)c3ccoc3C)C[C@]1([H])C(=O)N(Cc1csc(C)n1)C2,2.03%,-12.4%
CC(C1CCN(Cc2ccc(OC(F)F)cc2)CC1)N1CCOCC1 (stereo not drawn),11.19%,16.23% and -9.669%
[H][C@]12CCC[C@@H](OCc3cccnc3)[C@]1([H])CN(C(=O)c1ccnnc1)C2,-6.654% and -5.107%,-11.32%
Cl.Cl.FC(F)(F)c1cccc(-c2c[nH]c(C3CCCN3)n2)c1 (stereo not drawn),25.48%,24.38%
CC(C)c1nc(CN2CCOC(Cn3cncn3)C2)cs1 (stereo not drawn),-18.72%,-10.74%
COc1ccccc1OC(C)CNC(=O)c1cnc[nH]1 (stereo not drawn),8.074%,6.384%
Cc1noc(C)c1CCCNC(=O)Nc1cccc([S+](C)[O-])c1 (stereo not drawn),-12.49% and 3.627%,2.381%
COc1ccc(C(=O)N2CCCCC2c2ccccn2)c(OC)n1 (stereo not drawn),8.985%,-37.5%
COc1ccc(C(C(=O)O)N2CCN(C3CCCC3)CC2)cc1OC (stereo not drawn),-5.28%,-22.11%
Cc1cnn(CCNCc2csc(-c3ccsc3)n2)c1,11.9%,11.21%
CCOCc1cnc2n1CCN(Cc1cccs1)C2C.O=C(O)C(F)(F)F (stereo not drawn),-35.32% and 21.57%,2.768%
CC(C)(C)c1ncc(CNc2ccn(CCc3ccncc3)n2)s1,4.724%,3.378%
O=C(O)C(F)(F)F.O=C(O)C(F)(F)F.[H][C@@]12OCCN(C(=O)c3cncc(C)c3)[C@@]1([H])CC[C@H]2OCCN(C)C,0.8835%,0.4399%
Cc1noc(C)c1CNCc1c(C(C)C)nn(C)c1N1CCOCC1,-10.05%,13.52%
O=C(O)C(F)(F)F.O=C(O)C(F)(F)F.[H][C@@]12COC[C@]1(CNC(=O)c1ccco1)CN(Cc1ccncc1)C2,27.3%,-19.14%
Cc1ccccc1CN1CCCN(CCN2CCOC2=O)CC1,15.92%,-1.52% and -5.008%
Cc1nccn1-c1cccc(C2CCCN2S(=O)(=O)N(C)C)n1 (stereo not drawn),5.73%,-2.223%
CCCc1nc(NC2(COC)CCCC2)c2cnn(C)c2n1,31.69%,-24.06%
CN1CCCN(C(=O)NCc2cc(Br)cs2)CC1,-3.725%,-8.189%
COc1nn(C)c2c1CCCN(C(=O)c1c[nH]cn1)C2,-20.15%,-12.23%
Cc1nc(C2CCCN(C(=O)c3ccnc(N(C)C)c3)C2)no1 (stereo not drawn),-4.134%,0.2288%
CCN(CC)c1ccc(CNC(=O)c2ccc(=O)[nH]n2)cn1,-24.35%,-32.41%
O=C(O)C(F)(F)F.O=C(O)C(F)(F)F.[H][C@@]12CCCO[C@]1([H])[C@H](N(C)C)CN(Cc1ccoc1)C2,-3.006%,-13.5%
CCc1ncc2c(n1)CN(Cc1nc(-c3ccccn3)no1)CC2,5.75%,-11.79%
O=C(NC1CCCC1)c1nc(COc2ccc3c(c2)OCO3)no1,2.668%,13.54%
[H][C@]12CC[C@]([H])(CN(C(=O)N(C)C)C1)N(C(=O)c1cc(C(C)C)oc1C)C2,-25.32% and -10.15%,-10.36% and -2.441%
O=C(NC1CCS(=O)(=O)C1)c1cn(C2CC2)c(=O)c2ccccc12 (stereo not drawn),14.29%,12.39%
[H][C@@]12COC[C@]1(COCc1cccnc1)CN(C(=O)c1cc(C)on1)C2,27.77%,15.05%
O=C(c1ccncc1F)N1CCc2ncnc(-c3ccncc3)c2CC1,13.08%,-10.93%
CN(Cc1ccc(C(=O)NCC2COCCO2)c(=O)[nH]1)CC(C)(C)C (stereo not drawn),-33.57%,-19.53%
O=C(O)C(F)(F)F.[H][C@@]12C[C@H](C(=O)Nc3cccnc3)CN(C(=O)c3ccsc3)[C@]1([H])CCO2,-3.876%,-28.55%
O=C(NCCc1csc(-c2ccncc2)n1)C1CC(=O)N(C2CC2)C1 (stereo not drawn),-3.595%,-27.92%
Cc1cnn(CC2CN(c3ncnc4[nH]ccc34)CCO2)c1 (stereo not drawn),25.07%,-14.55%
COc1ccc(C(=O)N2C[C@@H](CN3CCOCC3)[C@@H](CO)C2)c(C)c1,-1.01%,7.939%

6 of the entries, repeated:

* Cn1cnnc1C1CCCN(Cc2nc(Cc3ccccc3)no2)C1 (stereo not drawn) : Mtb glucose medium: 3.829%; Mtb cholesterol medium: -9.391%
* Cc1cc(C)c2c(c1)C(CC(=O)O)C(=O)N2 (stereo not drawn) : Mtb glucose medium: 29.32%; Mtb cholesterol medium: -17.04%
* O=C(O)C(F)(F)F.O=C(O)C(F)(F)F.[H][C@@]12COC[C@]1(CNC(=O)c1ccco1)CN(Cc1ccncc1)C2 : Mtb glucose medium: 27.3%; Mtb cholesterol medium: -19.14%
* O=C(O)C(F)(F)F.[H][C@@]12C[C@H](C(=O)Nc3cccnc3)CN(C(=O)c3ccsc3)[C@]1([H])CCO2 : Mtb glucose medium: -3.876%; Mtb cholesterol medium: -28.55%
* COc1ccc(C(=O)N2C[C@@H](CN3CCOCC3)[C@@H](CO)C2)c(C)c1 : Mtb glucose medium: -1.01%; Mtb cholesterol medium: 7.939%
* Cc1cc(NS(=O)(=O)c2ccc(C(=O)O)cc2F)ccc1F : Mtb glucose medium: 27.39%; Mtb cholesterol medium: 7.775%